Assay results: publication PMC10334828
No constants are given. Whether binding was seen depends on the method and setting. For some of these results: Binding seen in cells or lysates may run through a third protein. Some results given as binding are weak or reduced against the parent protein; the word gives no strength. Where a sequence is shown, tags or fusion partners need not be part of it. Values belong to the molecule of their own block, whether it stands above or below them.

Protein sequences, listed by entry. Tags and fused reporters are not part of them.
UniProt P40763: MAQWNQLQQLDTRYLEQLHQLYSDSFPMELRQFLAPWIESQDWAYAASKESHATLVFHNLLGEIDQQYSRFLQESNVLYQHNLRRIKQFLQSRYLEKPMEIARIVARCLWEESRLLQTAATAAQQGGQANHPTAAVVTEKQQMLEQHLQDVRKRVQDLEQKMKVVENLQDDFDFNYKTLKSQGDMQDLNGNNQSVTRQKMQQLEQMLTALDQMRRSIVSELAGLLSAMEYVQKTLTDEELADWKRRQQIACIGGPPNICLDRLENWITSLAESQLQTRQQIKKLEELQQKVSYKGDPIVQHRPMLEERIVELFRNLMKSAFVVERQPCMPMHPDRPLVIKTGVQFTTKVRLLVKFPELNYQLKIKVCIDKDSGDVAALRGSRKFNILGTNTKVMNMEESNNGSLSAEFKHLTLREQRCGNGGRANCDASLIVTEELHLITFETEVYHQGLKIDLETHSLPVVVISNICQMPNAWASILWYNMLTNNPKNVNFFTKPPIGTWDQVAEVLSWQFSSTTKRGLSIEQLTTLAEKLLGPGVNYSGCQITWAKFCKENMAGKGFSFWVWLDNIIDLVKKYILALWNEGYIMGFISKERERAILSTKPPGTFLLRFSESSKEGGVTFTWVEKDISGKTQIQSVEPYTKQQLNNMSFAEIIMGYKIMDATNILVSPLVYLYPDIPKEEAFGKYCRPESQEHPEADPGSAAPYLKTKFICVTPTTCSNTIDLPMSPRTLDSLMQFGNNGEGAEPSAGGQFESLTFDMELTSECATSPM

Assays:
[1] = biological target: T1, HDAC10 (histone deacetylase 10), endogenous in THP1 cells (human (endogenous in THP1)) (UniProt Q969S8); experiment: co-IP; endogenous proteins in THP1 cells treated with HDM; 1 mg lysate protein, 1 ug antibody to HDAC10 or STAT3 (IgG as control) overnight at 4 °C, Protein G beads, immunoblot
T1 sequence: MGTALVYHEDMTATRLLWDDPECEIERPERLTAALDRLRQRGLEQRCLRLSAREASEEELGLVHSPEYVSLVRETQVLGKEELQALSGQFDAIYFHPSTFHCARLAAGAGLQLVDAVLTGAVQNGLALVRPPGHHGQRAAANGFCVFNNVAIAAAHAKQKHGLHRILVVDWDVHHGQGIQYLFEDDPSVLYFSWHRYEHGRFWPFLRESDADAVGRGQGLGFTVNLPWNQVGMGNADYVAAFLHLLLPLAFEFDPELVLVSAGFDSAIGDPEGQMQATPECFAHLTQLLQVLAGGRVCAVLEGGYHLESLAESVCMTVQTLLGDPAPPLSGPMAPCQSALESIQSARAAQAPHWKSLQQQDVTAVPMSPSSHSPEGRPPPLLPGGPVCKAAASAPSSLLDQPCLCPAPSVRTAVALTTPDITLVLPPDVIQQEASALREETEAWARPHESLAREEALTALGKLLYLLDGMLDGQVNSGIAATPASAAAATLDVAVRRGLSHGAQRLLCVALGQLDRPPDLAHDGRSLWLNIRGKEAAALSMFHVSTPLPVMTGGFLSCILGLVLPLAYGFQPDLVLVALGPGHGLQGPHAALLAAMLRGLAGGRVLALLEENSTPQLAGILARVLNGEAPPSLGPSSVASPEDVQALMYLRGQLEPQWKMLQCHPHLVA

[2] = biological target: STAT3, endogenous in THP1 cells (human (endogenous in THP1)) (UniProt P40763); experiment: as above
GST-HA-STAT3 = GST-HA-STAT3 (UniProt P40763); experiment: pull-down; called GST pull-down; purified GST-HDAC10 and GST-HA-STAT3 mixed in equal amounts, primary antibody overnight at 4 °C, Protein G beads 1~2 h, western blot with anti-HDAC10 or anti-STAT3; both purified
HA-tagged STAT3 = HA-tagged STAT3 (UniProt P40763); experiment: co-IP; THP1 cells transfected with HA-tagged STAT3 alone or together with Flag-tagged HDAC10; IP with antibody to HA or Flag, immunoblot

binding [1]: binds
Molecule: STAT3, endogenous in THP1 cells (from UniProt P40763 1-770)

binding [2]: binds
B1: HDAC10 (histone deacetylase 10), endogenous in THP1 cells (protein, UniProt Q969S8 1-669)
chain: MGTALVYHEDMTATRLLWDDPECEIERPERLTAALDRLRQRGLEQRCLRLSAREASEEELGLVHSPEYVSLVRETQVLGKEELQALSGQFDAIYFHPSTFHCARLAAGAGLQLVDAVLTGAVQNGLALVRPPGHHGQRAAANGFCVFNNVAIAAAHAKQKHGLHRILVVDWDVHHGQGIQYLFEDDPSVLYFSWHRYEHGRFWPFLRESDADAVGRGQGLGFTVNLPWNQVGMGNADYVAAFLHLLLPLAFEFDPELVLVSAGFDSAIGDPEGQMQATPECFAHLTQLLQVLAGGRVCAVLEGGYHLESLAESVCMTVQTLLGDPAPPLSGPMAPCQSALESIQSARAAQAPHWKSLQQQDVTAVPMSPSSHSPEGRPPPLLPGGPVCKAAASAPSSLLDQPCLCPAPSVRTAVALTTPDITLVLPPDVIQQEASALREETEAWARPHESLAREEALTALGKLLYLLDGMLDGQVNSGIAATPASAAAATLDVAVRRGLSHGAQRLLCVALGQLDRPPDLAHDGRSLWLNIRGKEAAALSMFHVSTPLPVMTGGFLSCILGLVLPLAYGFQPDLVLVALGPGHGLQGPHAALLAAMLRGLAGGRVLALLEENSTPQLAGILARVLNGEAPPSLGPSSVASPEDVQALMYLRGQLEPQWKMLQCHPHLVA

binding (GST-HA-STAT3): binds
B2: GST-HDAC10 (protein, UniProt Q969S8 1-669)
chain: MGTALVYHEDMTATRLLWDDPECEIERPERLTAALDRLRQRGLEQRCLRLSAREASEEELGLVHSPEYVSLVRETQVLGKEELQALSGQFDAIYFHPSTFHCARLAAGAGLQLVDAVLTGAVQNGLALVRPPGHHGQRAAANGFCVFNNVAIAAAHAKQKHGLHRILVVDWDVHHGQGIQYLFEDDPSVLYFSWHRYEHGRFWPFLRESDADAVGRGQGLGFTVNLPWNQVGMGNADYVAAFLHLLLPLAFEFDPELVLVSAGFDSAIGDPEGQMQATPECFAHLTQLLQVLAGGRVCAVLEGGYHLESLAESVCMTVQTLLGDPAPPLSGPMAPCQSALESIQSARAAQAPHWKSLQQQDVTAVPMSPSSHSPEGRPPPLLPGGPVCKAAASAPSSLLDQPCLCPAPSVRTAVALTTPDITLVLPPDVIQQEASALREETEAWARPHESLAREEALTALGKLLYLLDGMLDGQVNSGIAATPASAAAATLDVAVRRGLSHGAQRLLCVALGQLDRPPDLAHDGRSLWLNIRGKEAAALSMFHVSTPLPVMTGGFLSCILGLVLPLAYGFQPDLVLVALGPGHGLQGPHAALLAAMLRGLAGGRVLALLEENSTPQLAGILARVLNGEAPPSLGPSSVASPEDVQALMYLRGQLEPQWKMLQCHPHLVA

binding (HA-tagged STAT3): binds
B3: Flag-tagged HDAC10 (protein, UniProt Q969S8 1-669)
chain: MGTALVYHEDMTATRLLWDDPECEIERPERLTAALDRLRQRGLEQRCLRLSAREASEEELGLVHSPEYVSLVRETQVLGKEELQALSGQFDAIYFHPSTFHCARLAAGAGLQLVDAVLTGAVQNGLALVRPPGHHGQRAAANGFCVFNNVAIAAAHAKQKHGLHRILVVDWDVHHGQGIQYLFEDDPSVLYFSWHRYEHGRFWPFLRESDADAVGRGQGLGFTVNLPWNQVGMGNADYVAAFLHLLLPLAFEFDPELVLVSAGFDSAIGDPEGQMQATPECFAHLTQLLQVLAGGRVCAVLEGGYHLESLAESVCMTVQTLLGDPAPPLSGPMAPCQSALESIQSARAAQAPHWKSLQQQDVTAVPMSPSSHSPEGRPPPLLPGGPVCKAAASAPSSLLDQPCLCPAPSVRTAVALTTPDITLVLPPDVIQQEASALREETEAWARPHESLAREEALTALGKLLYLLDGMLDGQVNSGIAATPASAAAATLDVAVRRGLSHGAQRLLCVALGQLDRPPDLAHDGRSLWLNIRGKEAAALSMFHVSTPLPVMTGGFLSCILGLVLPLAYGFQPDLVLVALGPGHGLQGPHAALLAAMLRGLAGGRVLALLEENSTPQLAGILARVLNGEAPPSLGPSSVASPEDVQALMYLRGQLEPQWKMLQCHPHLVA
